In patent US7576057B2, “Cyclic peptides” (Scynexis, Inc., priority 2006, dated 2009):
Not every detail of the peptide structures is certain; ends, links or a residue may be inferred.

Tests used:
HCV RNA replicon ET = assay: HCV RNA replicon luciferase reporter assay in ET cells; assay type: cell-based; conditions: for inhibition of HCV replication: human liver cells (ET replicon line), 72 hours, LUC endpoint
HIV strain HIV-1IIIB = assay: MTS cytoprotection assay, HIV infection of CEM-SS cells; assay type: cell-based, human immunodeficiency virus-1 (HIV); conditions: 6 days post-infection

| SMILES | inhibition of HCV replication (HCV RNA replicon ET) | inhibition of HIV strain HIV-1IIIB (HIV strain HIV-1IIIB) | antiviral activity against HCV (HCV RNA replicon ET; statement in the background section) |
| --- | --- | --- | --- |
| C/C=C/C[C@@H](C)[C@@H](O)[C@H]1C(=O)N[C@@H](CC)C(=O)N(C)CC(=O)N(C)[C@@H](CC(C)C)C(=O)N[C@@H](C(C)C)C(=O)N(C)[C@@H](CC(C)C)C(=O)N[C@@H](C)C(=O)N[C@H](CCCCN(C)C)C(=O)N(C)[C@@H](CC(C)C)C(=O)N(C)[C@@H](CC(C)C)C(=O)N(C)[C@@H](C(C)C)C(=O)N1C [Compound 1, [(N,N-ε-Dimethyl)-D-lysyl]^8cyclosporine] | inhibited HCV replication | inhibited | – |
| C/C=C/C[C@@H](C)[C@@H](O)[C@H]1C(=O)N[C@@H](CC)C(=O)N(C)CC(=O)N(C)[C@@H](CC(C)C)C(=O)N[C@@H](C(C)C)C(=O)N(C)[C@@H](CC(C)C)C(=O)N[C@@H](C)C(=O)N[C@H](CCCCN)C(=O)N(C)[C@@H](CC(C)C)C(=O)N(C)[C@@H](CC(C)C)C(=O)N(C)[C@@H](C(C)C)C(=O)N1C [Compound 2, [D-Lysyl]^8cyclosporine] | inhibited HCV replication | – | does have antiviral activity |
